{"source": "paper PMC7335789", "about": "“Bifurcated binding of the OmpF receptor underpins import of the bacteriocin colicin N into Escherichia coli” (The Journal of Biological Chemistry, 2020)", "molecules": {"B1": {"name": "colicin N (WT ColN) (protein, UniProt P08083 1-387)", "chain": "MGSNGADNAHNNAFGGGKNPGIGNTSGAGSNGSASSNRGNSNGWSWSNKPHKNDGFHSDGSYHITFHGDNNSKPKPGGNSGNRGNNGDGASAKVGEITITPDNSKPGRYISSNPEYSLLAKLIDAESIKGTEVYTFHTRKGQYVKVTVPDSNIDKMRVDYVNWKGPKYNNKLVKRFVSQFLLFRKEEKEKNEKEALLKASELVSGMGDKLGEYLGVKYKNVAKEVANDIKNFHGRNIRSYNEAMASLNKVLANPKMKVNKSDKDAIVNAWKQVNAKDMANKIGNLGKAFKVADLAIKVEKIREKSIEGYNTGNWGPLLLEVESWIIGGVVAGVAISLFGAVLSFLPISGLAVTALGVIGIMTISYLSSFIDANRVSNINNIISSVIR"}, "B2": {"name": "ColN^1-185-mCherry (domain or fragment)", "chain": "MGSNGADNAHNNAFGGGKNPGIGNTSGAGSNGSASSNRGNSNGWSWSNKPHKNDGFHSDGSYHITFHGDNNSKPKPGGNSGNRGNNGDGASAKVGEITITPDNSKPGRYISSNPEYSLLAKLIDAESIKGTEVYTFHTRKGQYVKVTVPDSNIDKMRVDYVNWKGPKYNNKLVKRFVSQFLLFRK", "notes": "also called fluorescently labeled ColN"}, "B3": {"name": "ColE9 OBS1 peptide (residues 2-18) (peptide)", "peptide": "SGGDGRGHNTGAHSTSG", "modifications": "C-terminal amide (CONH2)"}}, "key": {"[1]": {"molecular_target": "T1, OmpF (E. coli (endogenous in B^E3000)) (UniProt P02931)", "T1 sequence": "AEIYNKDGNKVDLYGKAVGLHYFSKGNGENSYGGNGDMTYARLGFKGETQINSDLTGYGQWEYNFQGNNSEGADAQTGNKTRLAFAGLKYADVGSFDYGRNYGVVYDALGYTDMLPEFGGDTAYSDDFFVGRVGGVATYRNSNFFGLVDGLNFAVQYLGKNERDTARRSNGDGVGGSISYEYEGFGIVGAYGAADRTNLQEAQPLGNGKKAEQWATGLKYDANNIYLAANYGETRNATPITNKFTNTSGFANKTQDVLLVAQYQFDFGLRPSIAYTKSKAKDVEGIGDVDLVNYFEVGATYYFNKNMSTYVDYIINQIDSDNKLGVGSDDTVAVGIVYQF", "assay": "native MS; OmpF with the peptides ColN^2-19 and ColN^20-38; conditions not given; both purified"}, "[2]": {"molecular_target": "T1, OmpF (E. coli (endogenous in B^E3000))", "assay": "native MS; 10 uM OmpF and 10 uM ColN in 100 mM ammonium acetate pH 6.9, 1% beta-OG, trypsin 37 C 2 h, gel filtration, OmpF fractions analysed in 200 mM ammonium acetate, 1% beta-OG; both purified"}, "[3]": {"molecular_target": "T1, OmpF (E. coli (endogenous in B^E3000))", "assay": "immunodiffusion (double diffusion precipitation) assay; 0.5% agarose gel in potassium phosphate buffer pH 6.65, 1% beta-OG; 20 ul of each protein at 17 uM in 3-mm wells, overnight at room temperature; both purified"}, "[4]": {"molecular_target": "T2, OmpF on E. coli cells (E. coli (endogenous in JW2203-1, BW25113, BL21(DE3))) (UniProt P02931)", "T2 sequence": "T1 sequence", "assay": "FRAP of labelled cells; only the binder purified"}, "[5]": {"molecular_target": "T3, OmpC on E. coli cells (E. coli (endogenous in JW0912-1)) (UniProt P06996)", "T3 sequence": "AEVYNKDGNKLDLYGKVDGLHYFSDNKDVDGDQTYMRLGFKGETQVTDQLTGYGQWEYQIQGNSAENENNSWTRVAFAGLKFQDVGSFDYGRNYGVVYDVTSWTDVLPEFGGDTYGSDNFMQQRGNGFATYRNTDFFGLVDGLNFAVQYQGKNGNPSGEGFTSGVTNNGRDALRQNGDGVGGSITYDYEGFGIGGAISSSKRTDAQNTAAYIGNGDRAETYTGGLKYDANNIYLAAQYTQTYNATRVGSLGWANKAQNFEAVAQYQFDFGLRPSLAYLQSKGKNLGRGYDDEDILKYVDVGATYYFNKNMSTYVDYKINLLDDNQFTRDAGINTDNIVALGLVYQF", "assay": "widefield fluorescence microscopy of labelled cells; only the binder purified"}, "[6]": {"molecular_target": "T1, OmpF (E. coli (endogenous in B^E3000))", "assay": "ITC; both purified"}}, "note": "Results are given in words; binding and its absence hold for the method and conditions named. Some entries that bind do so weakly or less than the wild type."}
{"molecule": "ColN^20-38 peptide (from UniProt P08083 20-38)", "values": [{"measurement": "binding", "setting": "[1]", "value": "no binding"}]}
{"molecule": "ColN peptide of mass 3,375 Da (residues 2-38) (from UniProt P08083 2-38)", "values": [{"measurement": "binding", "setting": "[2]", "value": "binds"}]}
{"molecule": "B1", "values": [{"measurement": "binding", "setting": "[3]", "value": "binds"}]}
{"molecule": "B2", "values": [{"measurement": "binding", "setting": "[4]", "value": "binds"}, {"measurement": "binding", "setting": "[5]", "value": "no binding (tested: 200 nM)"}]}
{"molecule": "B3", "values": [{"measurement": "binding", "setting": "[6]", "value": "binds"}]}
